Test results from paper PMC4596637.

Sequences of proteins named here, by UniProt entry; tags and fusion partners are left off. A change or cut given only in a name is not applied to a line headed by its entry.
UniProt Q1L8J7: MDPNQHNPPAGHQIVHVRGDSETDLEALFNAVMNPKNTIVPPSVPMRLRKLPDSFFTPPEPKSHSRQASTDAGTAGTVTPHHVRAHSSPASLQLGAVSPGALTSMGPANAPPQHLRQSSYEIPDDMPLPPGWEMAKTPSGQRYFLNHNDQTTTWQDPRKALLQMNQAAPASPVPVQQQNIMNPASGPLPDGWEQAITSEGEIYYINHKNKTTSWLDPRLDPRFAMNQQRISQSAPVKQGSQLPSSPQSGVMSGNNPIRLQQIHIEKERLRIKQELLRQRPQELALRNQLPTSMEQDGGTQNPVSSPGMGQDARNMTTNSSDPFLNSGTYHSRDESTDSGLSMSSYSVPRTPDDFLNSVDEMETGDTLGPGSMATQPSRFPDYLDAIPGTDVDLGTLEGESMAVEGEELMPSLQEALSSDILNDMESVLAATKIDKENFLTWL

What was measured:
Experiment in all cases: two-hybrid; Y2H assay, Matchmaker system, AH109 yeast; Amotl2a forms fused to the Gal4 DNA-binding domain (pGBKT7), Yap1/Taz forms fused to the Gal4 activation domain (pGADT7); patched on selective plates lacking histidine, grown 3-4 days
[1] = biological target: T1, zebrafish Amotl2a fused to the Gal4 DNA-binding domain (pGBKT7) (zebrafish) (UniProt A1YB07)
T1 sequence: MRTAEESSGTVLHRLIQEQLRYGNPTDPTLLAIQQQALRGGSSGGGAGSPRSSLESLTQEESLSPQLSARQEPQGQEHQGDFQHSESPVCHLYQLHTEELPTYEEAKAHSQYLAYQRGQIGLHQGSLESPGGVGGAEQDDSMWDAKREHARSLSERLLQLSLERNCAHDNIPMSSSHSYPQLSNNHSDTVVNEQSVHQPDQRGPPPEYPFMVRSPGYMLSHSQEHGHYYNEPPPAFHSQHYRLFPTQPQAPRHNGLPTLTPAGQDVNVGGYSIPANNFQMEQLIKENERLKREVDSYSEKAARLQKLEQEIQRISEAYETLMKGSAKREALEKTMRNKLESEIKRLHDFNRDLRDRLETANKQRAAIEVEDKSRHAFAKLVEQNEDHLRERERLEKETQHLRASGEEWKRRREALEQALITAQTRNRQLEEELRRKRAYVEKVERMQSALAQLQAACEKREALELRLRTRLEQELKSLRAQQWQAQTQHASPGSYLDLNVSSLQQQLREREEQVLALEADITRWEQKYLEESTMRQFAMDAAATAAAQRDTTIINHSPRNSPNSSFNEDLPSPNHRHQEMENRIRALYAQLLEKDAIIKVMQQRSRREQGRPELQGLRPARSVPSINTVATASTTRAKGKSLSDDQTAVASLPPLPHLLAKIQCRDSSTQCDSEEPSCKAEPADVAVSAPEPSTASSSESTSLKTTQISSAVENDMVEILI

[2] = biological target: zebrafish Amotl2a with the LPTY motif mutated (LATA), Gal4 DNA-binding domain fusion (zebrafish) (UniProt A1YB07)
[3] = biological target: zebrafish Amotl2a with the PPEY motif mutated (PPEA), Gal4 DNA-binding domain fusion (zebrafish) (UniProt A1YB07)

| Substance | binding [1] | binding [2] | binding [3] |
| --- | --- | --- | --- |
| zebrafish Taz fused to the Gal4 activation domain (pGADT7) | binds |  |  |
| zebrafish TazΔWW fused to the Gal4 activation domain (pGADT7) | no binding |  |  |
| zebrafish Yap1 fused to the Gal4 activation domain (pGADT7) (from UniProt Q1L8J7 1-442) |  | binds | binds |
| zebrafish Yap1ΔWW1,2 fused to the Gal4 activation domain (pGADT7) (from UniProt Q1L8J7) | no binding |  |  |

These are yes or no findings as the source states them, for the method shown. Binding calls can cover weak binding; strength is not graded here. For some assays here: Sequences can lack the tags named with a protein.
